Data taken from EP0309566B1 (JOHNSON AND JOHNSON, priority 1987, dated 1994).
Where a sequence shows no end group, the ends are not given.

Test: Boc solid-phase peptide synthesis; Boc-proline Merrifield resin
Settings: whole synthesis, 214 nm, scale of the general procedure Boc-proline resin (1.8326 g)

IWGCSGKLICTTAVP
final HPLC purity: 87%
